{"source": "PubChem BioAssay AID652243 (Drosophila RNAi Screening Center, 2013)", "aim": "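Knock-downs that decrease or increase androgen receptor reporter signal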 (primary screen)", "cells": "Drosophila S2R+ cells", "reagent": "long dsRNA against Drosophila genes", "duration": "72 h (48 h, then 24 h hormone)", "conditions": "synthetic androgen R1881 at 10 nM for 24 h", "read-out": "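Firefly light from an androgen-responsive reporter and Renilla control light per well, raw and unnormalised, for each of two replicates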", "direction": "firefly reporter light: higher = more light from androgen-responsive reporter; Renilla control light: higher = more constitutive control signal (cell number, transfection)", "call rule": "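Across duplicate plates, a knock-down whose log firefly/Renilla ratio shifted a set fold down or up from the GFP/LacZ control mean was a hit; the downward cut appears as both 1.5 and 3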", "meaning of the calls": "active = hit: reporter lowered or raised; inactive = no hit", "note": "The screen tested about 24,000 reagents; this is a random part of those with a known target gene and a result. Over the whole deposit, 246 (1%) were called active. 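Plates not normalised; calls are printed but the firefly/Renilla ratio behind them is not deposited; fold cut for lowering reported inconsistently.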 Raw values vary from plate to plate and are shown uncorrected. A number with no mark means an inactive call. The record does not give: the amount of reagent."}
{"target gene": "Eig71Eh (GeneID 39709)", "DRSC id": "DRSC11155", "firefly reporter light, replicate 1": 3.07e5, "firefly reporter light, replicate 2": 2.16e5, "Renilla control light, replicate 1": 3.02e6, "Renilla control light, replicate 2": 2.76e6}
{"target gene": "CG7741 (GeneID 36208)", "DRSC id": "DRSC07035", "firefly reporter light, replicate 1": 2.98e5, "firefly reporter light, replicate 2": 1.84e5, "Renilla control light, replicate 1": 1.63e6, "Renilla control light, replicate 2": 1.32e6}
{"target gene": "Eig71Ed (GeneID 39704)", "DRSC id": "DRSC11151", "firefly reporter light, replicate 1": 2.10e5, "firefly reporter light, replicate 2": 2.60e5, "Renilla control light, replicate 1": 2.75e6, "Renilla control light, replicate 2": 2.20e6}
{"target gene": "CG9449 (GeneID 40117)", "DRSC id": "DRSC11073", "firefly reporter light, replicate 1": 1.59e5, "firefly reporter light, replicate 2": 1.52e5, "Renilla control light, replicate 1": 2.32e6, "Renilla control light, replicate 2": 1.99e6}
{"target gene": "CG9449 (GeneID 40117)", "DRSC id": "DRSC25691", "firefly reporter light, replicate 1": 8.73e5, "firefly reporter light, replicate 2": 8.80e5, "Renilla control light, replicate 1": 1.06e6, "Renilla control light, replicate 2": 1.29e6}
{"target gene": "Nnf1b (GeneID 318874)", "DRSC id": "DRSC22080", "firefly reporter light, replicate 1": 6.74e5, "firefly reporter light, replicate 2": 6.72e5, "Renilla control light, replicate 1": 2.30e6, "Renilla control light, replicate 2": 2.80e6}
{"target gene": "Nnf1b (GeneID 318874)", "DRSC id": "DRSC25920", "firefly reporter light, replicate 1": 4.62e5, "firefly reporter light, replicate 2": 3.57e5, "Renilla control light, replicate 1": 1.15e6, "Renilla control light, replicate 2": 9.90e5}
{"target gene": "CG30082 (GeneID 246443)", "DRSC id": "DRSC22945", "firefly reporter light, replicate 1": 8.14e5, "firefly reporter light, replicate 2": 1.43e6, "Renilla control light, replicate 1": 1.64e6, "Renilla control light, replicate 2": 2.54e6}
{"target gene": "arg (GeneID 46717)", "DRSC id": "DRSC18737", "firefly reporter light, replicate 1": 1.02e5, "firefly reporter light, replicate 2": 78990, "Renilla control light, replicate 1": 6.09e5, "Renilla control light, replicate 2": 4.70e5}
{"target gene": "arg (GeneID 46717)", "DRSC id": "DRSC29488", "firefly reporter light, replicate 1": 5.48e5, "firefly reporter light, replicate 2": 8.72e5, "Renilla control light, replicate 1": 1.08e6, "Renilla control light, replicate 2": 1.08e6}
{"target gene": "LUBEL (GeneID 33950)", "DRSC id": "DRSC02141", "firefly reporter light, replicate 1": 2.07e5, "firefly reporter light, replicate 2": 1.63e5, "Renilla control light, replicate 1": 1.48e6, "Renilla control light, replicate 2": 1.17e6}
{"target gene": "LUBEL (GeneID 33950)", "DRSC id": "DRSC28105", "firefly reporter light, replicate 1": 6.59e5, "firefly reporter light, replicate 2": 5.42e5, "Renilla control light, replicate 1": 2.00e6, "Renilla control light, replicate 2": 1.50e6}

Sorted by “Renilla control light, replicate 2” (descending): some entries from above.
{"target gene": "CG9449 (GeneID 40117)", "DRSC id": "DRSC11073", "firefly reporter light, replicate 1": 1.59e5, "firefly reporter light, replicate 2": 1.52e5, "Renilla control light, replicate 1": 2.32e6, "Renilla control light, replicate 2": 1.99e6}
{"target gene": "CG9449 (GeneID 40117)", "DRSC id": "DRSC25691", "firefly reporter light, replicate 1": 8.73e5, "firefly reporter light, replicate 2": 8.80e5, "Renilla control light, replicate 1": 1.06e6, "Renilla control light, replicate 2": 1.29e6}
